Source: PubChem BioAssay AID504408 (Broad Institute, 2011)
Screen size: about 300,000 compounds; about 5,200 (1.7%) were called active. Inconclusive results, whose numbers are uncertain, are shown with a selection of clear calls.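 The calls were made as follows: active = mean replicate activation of at least 50% with a set share of replicates each reaching 50%; inconclusive = only one of those two conditions met; inactive = mean below 50% and too few replicates reaching it.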

Assay: HSF-1 response element luciferase induction – NIH3T3-HGL cells, MG132 stress, luminescence, single point, primary screen (AID 504408);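 also: 0% = median of the neutral control wells and 100% = twice that signal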
Conditions: NIH3T3-HGL HSF-1 luciferase reporter, MG132, 8 h; at 9 µM; stronger effect = higher value

**Q.** For `CN1C(=O)C(=Cc2ccccc2OCc2ccc(Cl)cc2)C(=O)N(C)C1=O`, which activation is on record?
**A.** inconclusive: 50.5%

**Q.** With `O=c1[nH]c(=S)[nH]c(O)c1N=Nc1ccc(S(=O)(=O)N2CCc3ccccc32)cc1` as the compound, how does the activation read?
**A.** inconclusive: 54.9%

**Q.** Which activation does the source give for `CC(Cc1ccccc1)NC(=O)C(c1ccc(N)cc1)c1ccc(N)cc1` (stereo unspecified) here?
**A.** inconclusive: 50.6%

**Q.** For `COc1cc2c(cc1/C=C/[N+](=O)[O-])OCO2`, which activation is on record?
**A.** active: 263%

**Q.** With `CCOc1ccc(CN(CCCl)CCCl)cc1C(=O)OC` as the compound, how does the activation read?
**A.** active: 68.2%

**Q.** For `CCCNC(=O)c1c(N)n(Cc2ccco2)c2nc3ccccc3nc12`, which activation is on record?
**A.** inactive: 49.5%

**Q.** With `Cc1cc(=O)[nH]c(SCc2nc3ccccc3c(=O)n2-c2ccccc2C)n1` as the compound, how does the activation read?
**A.** inconclusive: 65.9%

**Q.** Which activation does the source give for `CC(C)(C)C(=O)c1cn(CC(=O)NCc2ccco2)c2ccccc12` here?
**A.** inactive: 16.8%

**Q.** Which activation does the source give for `CCN1C(=O)C(=Cc2ccc(C)s2)C(=O)N(CC)C1=S` here?
**A.** inactive: -12.4%

**Q.** Which activation does the source give for `Cc1cc(C(=O)Nc2ccccc2)nn1C(C)(C)C` here?
**A.** inconclusive: 50.2%

**Q.** With `CC[n+]1c(-c2ccccc2)c2cc(N)ccc2c2ccc(N)cc21` as the compound, how does the activation read?
**A.** inactive: -33.3%

**Q.** For `Nc1cc(C(=O)Nc2ccc(Cl)cc2)ccc1N1CC2CC(C1)c1cccc(=O)n1C2` (stereo unspecified), which activation is on record?
**A.** inconclusive: 52.1%

**Q.** Which activation does the source give for `CC(C)CNC(=O)c1c(N)n(Cc2ccco2)c2nc3ccccc3nc12` here?
**A.** active: 55.7%

**Q.** For `COc1ccccc1Sc1ccccc1CC(C)N` (stereo unspecified), which activation is on record?
**A.** inconclusive: 53%

**Q.** For `O=c1cccc2n1CC1CC2CN(c2nc(N3CCCCC3)nc(N3CCCCC3)n2)C1` (stereo unspecified), which activation is on record?
**A.** active: 58.4%

**Q.** Which activation does the source give for `COc1ccc(CN2CCN(Cc3ccccc3OC)CC2)cc1` here?
**A.** inactive: 2.58%

**Q.** Which activation does the source give for `O=C1COc2ccc(C(=O)COC(=O)Cc3ccccc3)cc2N1` here?
**A.** inactive: 14.7%

**Q.** With `COCCNC(=O)c1c(N)n(Cc2ccco2)c2nc3ccccc3nc12` as the compound, how does the activation read?
**A.** inconclusive: 53.6%

**Q.** For `Cc1ccc(C(=O)C2CN(C)CC2C(=O)c2ccc(C)cc2)cc1` (stereo unspecified), which activation is on record?
**A.** inactive: -5.96%

**Q.** For `Cc1cc(C)cc(N2C(=O)NC(=O)/C(=C\C=C\c3ccco3)C2=O)c1`, which activation is on record?
**A.** inconclusive: 51.1%

**Q.** Which activation does the source give for `O=c1[nH]c(=S)[nH]c(O)c1N=Nc1ccc(SC(F)F)cc1` here?
**A.** inconclusive: 51%

**Q.** With `O=c1[nH]c(=O)n(CCC2=CCCCC2)c(O)c1/C=N/Nc1ccccc1` as the compound, how does the activation read?
**A.** inconclusive: 50.6%

**Q.** Which activation does the source give for `Cc1ccc(N2C(=O)NC(=O)/C(=C/C=C/c3ccco3)C2=O)cc1` here?
**A.** inconclusive: 62.9%

**Q.** With `Clc1ccc(OCC#CCN2CCCCCC2)cc1` as the compound, how does the activation read?
**A.** inactive: -22.9%

**Q.** With `C=Cn1c(P(=S)(N2CCOCC2)N2CCOCC2)cc2c1CCCC2` as the compound, how does the activation read?
**A.** inactive: 1.73%

**Q.** With `C[C@]12N[C@H](Cc3ccccc31)c1ccccc12` as the compound, how does the activation read?
**A.** inactive: -13.2%

**Q.** With `CCCN1CCc2cccc3c2[C@H]1Cc1ccc(O)c(O)c1-3` as the compound, how does the activation read?
**A.** inconclusive: 53.7%

**Q.** For `Cc1cc(C(=O)N=Nc2c(O)n(C)c3ccccc23)c(C)o1`, which activation is on record?
**A.** active: 80.5%

**Q.** With `Cc1ccsc1C(=O)C1CCCN(Cc2ccccc2O)C1` (stereo unspecified) as the compound, how does the activation read?
**A.** active: 58%

**Q.** With `CCN(CC)c1ccc(/C=C/[N+](=O)[O-])cc1` as the compound, how does the activation read?
**A.** inconclusive: 60.4%

**Q.** For `CCCCC(CC)CNCC(O)c1ccccc1` (stereo unspecified), which activation is on record?
**A.** inactive: -2.84%

**Q.** With `Cn1c(O)c(C2=NNC(c3ccc(Cl)cc3)C2)c(=O)n(C)c1=O` (stereo unspecified) as the compound, how does the activation read?
**A.** inconclusive: 52.3%

**Q.** Which activation does the source give for `O=C(/C=C/c1ccccc1)c1c(O)n(CCc2ccccc2)c(=O)[nH]c1=O` here?
**A.** inconclusive: 59.5%

**Q.** For `Cc1ccc(CN2C(=O)NC(=O)C3(Cc4c(nc5ccccn5c4=O)N4CCCCCC43)C2=O)cc1` (stereo unspecified), which activation is on record?
**A.** inconclusive: 51.8%

**Q.** For `CCOC(C[n+]1c(-c2ccccc2)cc(C)cc1-c1ccccc1)OCC`, which activation is on record?
**A.** inactive: -13.3%

**Q.** For `O=c1[nH]c(=S)n(C2CC2)c(O)c1/C=N/Nc1ccccc1`, which activation is on record?
**A.** inactive: 2.77%

**Q.** With `CC(Cc1ccccc1)NC(=O)NC(C)Cc1ccccc1` (stereo unspecified) as the compound, how does the activation read?
**A.** inconclusive: 53.8%

**Q.** For `Cc1ccc2c(c1)C1CN(C)CCC1N2C(=O)COc1ccc(S(=O)(=O)N2CCOCC2)cc1` (stereo unspecified), which activation is on record?
**A.** inactive: 14.4%

**Q.** With `COc1cc(C2NCc3ccccc3-n3cccc32)ccc1O` (stereo unspecified) as the compound, how does the activation read?
**A.** active: 54.2%

**Q.** Which activation does the source give for `O=c1nc(/C=C/c2ccc(Cl)cc2Cl)cc(C(F)(F)F)[nH]1` here?
**A.** inactive: 11.1%

**Q.** Which activation does the source give for `O=c1[nH]c(=O)n(-c2ccccc2F)c(O)c1C=NCCC1=CCCCC1` here?
**A.** inconclusive: 51.2%

**Q.** For `CCCCn1c(NC(=O)c2ccco2)c(C(=O)OCC)c2nc3ccccc3nc21`, which activation is on record?
**A.** active: 70.9%

**Q.** Which activation does the source give for `COc1cccc(C2CC3C(=O)C=CC2N3Cc2ccccc2)c1` (stereo unspecified) here?
**A.** inactive: -9.35%

**Q.** Which activation does the source give for `O=[N+]([O-])c1ccc(NCc2ccccc2)c2nonc12` here?
**A.** inactive: 2.57%

**Q.** Which activation does the source give for `CC12CC[C@H]3[C@@H](CCC4(O)C[C@H](O)CCC34/C=N/NC(=O)Cc3ccccc3)C1(O)CCC2C1=CC(=O)OC1` (stereo partly specified) here?
**A.** inactive: -3.38%

**Q.** Which activation does the source give for `O=[N+]([O-])/C=C/c1c(Cl)cccc1Cl` here?
**A.** inconclusive: -3.36%
